Reference: publication doi:10.1101/2023.05.15.540505
Where two headings read alike, the source gives them in different places. Results are given in words; binding and its absence hold for the method and conditions named. Binding seen in cells or lysates may run through a third protein. These calls come from enrichment with a bait or labelling near it, and not all partners need be listed.

By UniProt entry, the sequences of proteins in these tests, tags left out.
UniProt Q01196: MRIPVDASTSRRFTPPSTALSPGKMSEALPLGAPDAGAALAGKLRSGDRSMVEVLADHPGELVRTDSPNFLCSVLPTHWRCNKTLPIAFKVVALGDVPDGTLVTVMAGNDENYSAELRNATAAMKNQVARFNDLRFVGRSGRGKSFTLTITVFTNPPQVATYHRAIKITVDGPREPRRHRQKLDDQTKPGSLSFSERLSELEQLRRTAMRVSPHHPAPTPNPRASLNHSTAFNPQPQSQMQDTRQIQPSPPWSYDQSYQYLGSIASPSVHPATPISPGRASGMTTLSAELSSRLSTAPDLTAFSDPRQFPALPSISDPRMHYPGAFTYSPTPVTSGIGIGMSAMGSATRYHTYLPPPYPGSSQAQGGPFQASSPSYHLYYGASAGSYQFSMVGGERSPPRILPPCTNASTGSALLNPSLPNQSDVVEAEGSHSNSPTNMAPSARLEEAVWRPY
UniProt Q6W2J9: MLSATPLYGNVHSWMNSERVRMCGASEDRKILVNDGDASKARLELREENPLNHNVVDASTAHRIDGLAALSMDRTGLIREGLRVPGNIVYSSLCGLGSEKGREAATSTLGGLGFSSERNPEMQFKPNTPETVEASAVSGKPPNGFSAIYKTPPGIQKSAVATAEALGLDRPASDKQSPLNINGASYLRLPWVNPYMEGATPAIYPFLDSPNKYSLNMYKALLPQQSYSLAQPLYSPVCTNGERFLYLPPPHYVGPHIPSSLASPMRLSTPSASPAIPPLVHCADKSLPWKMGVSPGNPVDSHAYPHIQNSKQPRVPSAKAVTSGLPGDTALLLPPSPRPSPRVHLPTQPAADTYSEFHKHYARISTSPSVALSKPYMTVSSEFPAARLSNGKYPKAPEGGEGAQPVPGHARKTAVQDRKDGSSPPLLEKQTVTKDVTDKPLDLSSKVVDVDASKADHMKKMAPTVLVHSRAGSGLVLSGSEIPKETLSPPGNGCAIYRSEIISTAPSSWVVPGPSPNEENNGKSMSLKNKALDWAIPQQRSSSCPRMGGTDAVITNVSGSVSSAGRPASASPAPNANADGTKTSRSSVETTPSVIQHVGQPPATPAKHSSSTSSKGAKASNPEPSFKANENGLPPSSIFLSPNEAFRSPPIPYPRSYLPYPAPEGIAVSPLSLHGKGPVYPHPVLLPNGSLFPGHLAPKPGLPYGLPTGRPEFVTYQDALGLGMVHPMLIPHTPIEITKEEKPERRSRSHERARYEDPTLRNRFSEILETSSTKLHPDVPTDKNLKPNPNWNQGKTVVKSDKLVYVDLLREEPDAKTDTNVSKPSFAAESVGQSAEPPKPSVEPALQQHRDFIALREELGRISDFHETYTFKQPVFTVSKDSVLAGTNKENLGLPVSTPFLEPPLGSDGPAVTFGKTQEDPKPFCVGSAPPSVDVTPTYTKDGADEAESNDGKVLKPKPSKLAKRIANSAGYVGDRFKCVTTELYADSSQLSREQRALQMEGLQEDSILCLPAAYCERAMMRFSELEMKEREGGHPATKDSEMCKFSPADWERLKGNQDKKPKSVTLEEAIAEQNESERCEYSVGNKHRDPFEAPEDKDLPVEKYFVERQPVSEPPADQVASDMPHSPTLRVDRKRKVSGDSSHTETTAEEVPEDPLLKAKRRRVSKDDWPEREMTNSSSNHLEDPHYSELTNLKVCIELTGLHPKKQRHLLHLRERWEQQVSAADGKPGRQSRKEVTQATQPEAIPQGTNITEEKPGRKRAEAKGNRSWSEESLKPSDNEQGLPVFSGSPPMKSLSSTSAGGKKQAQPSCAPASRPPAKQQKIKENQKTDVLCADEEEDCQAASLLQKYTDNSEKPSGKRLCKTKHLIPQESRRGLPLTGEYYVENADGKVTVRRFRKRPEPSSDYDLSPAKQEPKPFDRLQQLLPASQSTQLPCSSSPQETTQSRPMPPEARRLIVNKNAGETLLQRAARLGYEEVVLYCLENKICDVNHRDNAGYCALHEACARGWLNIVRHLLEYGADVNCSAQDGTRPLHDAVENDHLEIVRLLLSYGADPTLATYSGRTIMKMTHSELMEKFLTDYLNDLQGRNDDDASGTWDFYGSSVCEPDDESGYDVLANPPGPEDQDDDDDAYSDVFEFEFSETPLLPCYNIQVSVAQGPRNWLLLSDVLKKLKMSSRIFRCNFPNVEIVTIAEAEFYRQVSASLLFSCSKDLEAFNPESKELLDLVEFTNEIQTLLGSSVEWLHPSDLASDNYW
UniProt Q9UKT9: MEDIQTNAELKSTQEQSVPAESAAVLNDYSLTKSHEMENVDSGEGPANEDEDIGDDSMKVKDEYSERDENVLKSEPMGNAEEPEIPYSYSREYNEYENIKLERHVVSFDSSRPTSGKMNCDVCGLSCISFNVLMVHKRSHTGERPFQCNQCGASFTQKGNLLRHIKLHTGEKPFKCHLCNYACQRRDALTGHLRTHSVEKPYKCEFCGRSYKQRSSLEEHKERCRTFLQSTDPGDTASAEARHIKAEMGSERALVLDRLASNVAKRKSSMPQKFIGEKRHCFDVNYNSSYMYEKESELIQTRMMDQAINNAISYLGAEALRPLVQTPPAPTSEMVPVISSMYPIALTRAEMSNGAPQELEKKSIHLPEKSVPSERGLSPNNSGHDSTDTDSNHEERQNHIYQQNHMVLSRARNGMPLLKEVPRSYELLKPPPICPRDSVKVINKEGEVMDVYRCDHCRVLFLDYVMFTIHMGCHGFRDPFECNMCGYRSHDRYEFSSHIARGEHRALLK

T1: hypermethylated in cancer 1 (HIC1) (human) (UniProt Q14526)
T1 sequence: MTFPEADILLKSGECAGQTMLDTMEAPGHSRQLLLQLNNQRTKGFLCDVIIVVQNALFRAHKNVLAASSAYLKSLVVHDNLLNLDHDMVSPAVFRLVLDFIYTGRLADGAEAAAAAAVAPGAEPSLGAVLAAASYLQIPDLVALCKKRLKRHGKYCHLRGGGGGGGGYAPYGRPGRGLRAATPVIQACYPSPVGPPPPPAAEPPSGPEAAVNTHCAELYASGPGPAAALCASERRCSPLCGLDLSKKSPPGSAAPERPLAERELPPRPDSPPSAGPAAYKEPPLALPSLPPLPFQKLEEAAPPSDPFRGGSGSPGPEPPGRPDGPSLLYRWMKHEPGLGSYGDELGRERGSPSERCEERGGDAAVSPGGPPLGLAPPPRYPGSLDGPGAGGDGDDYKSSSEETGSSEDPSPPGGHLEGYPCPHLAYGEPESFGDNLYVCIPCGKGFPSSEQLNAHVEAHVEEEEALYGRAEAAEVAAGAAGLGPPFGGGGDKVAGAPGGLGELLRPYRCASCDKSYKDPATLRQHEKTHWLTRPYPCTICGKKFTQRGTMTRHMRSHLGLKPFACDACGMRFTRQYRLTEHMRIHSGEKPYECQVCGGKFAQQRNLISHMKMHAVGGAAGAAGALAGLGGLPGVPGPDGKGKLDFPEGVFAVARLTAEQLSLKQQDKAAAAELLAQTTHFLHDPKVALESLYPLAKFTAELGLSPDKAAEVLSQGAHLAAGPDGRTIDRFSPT


Legend:
[1] = molecular target: T1, hypermethylated in cancer 1 (HIC1) (human); test: affinity purification with mass spectrometry
[2] = molecular target: T1, hypermethylated in cancer 1 (HIC1) (human); test: affinity purification with mass spectrometry; remark: listed apart in the source

| binding [1] | binding [2] | Molecule |
| --- | --- | --- |
| binds | binds | Runt-related transcription factor 1 (RUNX1) (from UniProt Q01196 1-453) |
| binds |  | MARS (enzyme, UniProt P56192 1-900) MRLFVSDGVPGCLPVLAAAGRARGRAEVLISTVGPEDCVVPFLTRPKVPVLQLDSGNYLFSTSAICRYFFLLSGWEQDDLTNQWLEWEATELQPALSAALYYLVVQGKKGEDVLGSVRRALTHIDHSLSRQNCPFLAGETESLADIVLWGALYPLLQDPAYLPEELSALHSWFQTLSTQEPCQRAAETVLKQQGVLALRPYLQKQPQPSPAEGRAVTNEPEEEELATLSEEEIAMAVTAWEKGLESLPPLRPQQNPVLPVAGERNVLITSALPYVNNVPHLGNIIGCVLSADVFARYSRLRQWNTLYLCGTDEYGTATETKALEEGLTPQEICDKYHIIHADIYRWFNISFDIFGRTTTPQQTKITQDIFQQLLKRGFVLQDTVEQLRCEHCARFLADRFVEGVCPFCGYEEARGDQCDKCGKLINAVELKKPQCKVCRSCPVVQSSQHLFLDLPKLEKRLEEWLGRTLPGSDWTPNAQFITRSWLRDGLKPRCITRDLKWGTPVPLEGFEDKVFYVWFDATIGYLSITANYTDQWERWWKNPEQVDLYQFMAKDNVPFHSLVFPCSALGAEDNYTLVSHLIATEYLNYEDGKFSKSRGVGVFGDMAQDTGIPADIWRFYLLYIRPEGQDSAFSWTDLLLKNNSELLNNLGNFINRAGMFVSKFFGGYVPEMVLTPDDQRLLAHVTLELQHYHQLLEKVRIRDALRSILTISRHGNQYIQVNEPWKRIKGSEADRQRAGTVTGLAVNIAALLSVMLQPYMPTVSATIQAQLQLPPPACSILLTNFLCTLPAGHQIGTVSPLFQKLENDQIESLRQRFGGGQAKTSPKPAVVETVTTAKPQQIQALMDEVTKQGNIVRELKAQKADKNEVAAEVAKLLDLKKQLAVAEGKPPEAPKGKKKK |
| binds |  | RARS (enzyme, UniProt P54136 1-660) MDVLVSECSARLLQQEEEIKSLTAEIDRLKNCGCLGASPNLEQLQEENLKLKYRLNILRKSLQAERNKPTKNMINIISRLQEVFGHAIKAAYPDLENPPLLVTPSQQAKFGDYQCNSAMGISQMLKTKEQKVNPREIAENITKHLPDNECIEKVEIAGPGFINVHLRKDFVSEQLTSLLVNGVQLPALGENKKVIVDFSSPNIAKEMHVGHLRSTIIGESISRLFEFAGYDVLRLNHVGDWGTQFGMLIAHLQDKFPDYLTVSPPIGDLQVFYKESKKRFDTEEEFKKRAYQCVVLLQGKNPDITKAWKLICDVSRQELNKIYDALDVSLIERGESFYQDRMNDIVKEFEDRGFVQVDDGRKIVFVPGCSIPLTIVKSDGGYTYDTSDLAAIKQRLFEEKADMIIYVVDNGQSVHFQTIFAAAQMIGWYDPKVTRVFHAGFGVVLGEDKKKFKTRSGETVRLMDLLGEGLKRSMDKLKEKERDKVLTAEELNAAQTSVAYGCIKYADLSHNRLNDYIFSFDKMLDDRGNTAAYLLYAFTRIRSIARLANIDEEMLQKAARETKILLDHEKEWKLGRCILRFPEILQKILDDLFLHTLCDYIYELATAFTEFYDSCYCVEKDRQTGKILKVNMWRMLLCEAVAAVMAKGFDILGIKPVQRM |

The next lines start with the molecule.

| Molecule | binding [1] | binding [2] |
| --- | --- | --- |
| BCOR (BCL-6 interacting corepressor) (from UniProt Q6W2J9 1-1755) | binds | binds |
| IKZF3 (from UniProt Q9UKT9 1-509) | binds | binds |
| QARS (enzyme, UniProt P47897 1-775) MAALDSLSLFTSLGLSEQKARETLKNSALSAQLREAATQAQQTLGSTIDKATGILLYGLASRLRDTRRLSFLVSYIASKKIHTEPQLSAALEYVRSHPLDPIDTVDFERECGVGVIVTPEQIEEAVEAAINRHRPQLLVERYHFNMGLLMGEARAVLKWADGKMIKNEVDMQVLHLLGPKLEADLEKKFKVAKARLEETDRRTAKDVVENGETADQTLSLMEQLRGEALKFHKPGENYKTPGYVVTPHTMNLLKQHLEITGGQVRTRFPPEPNGILHIGHAKAINFNFGYAKANNGICFLRFDDTNPEKEEAKFFTAICDMVAWLGYTPYKVTYASDYFDQLYAWAVELIRRGLAYVCHQRGEELKGHNTLPSPWRDRPMEESLLLFEAMRKGKFSEGEATLRMKLVMEDGKMDPVAYRVKYTPHHRTGDKWCIYPTYDYTHCLCDSIEHITHSLCTKEFQARRSSYFWLCNALDVYCPVQWEYGRLNLHYAVVSKRKILQLVATGAVRDWDDPRLFTLTALRRRGFPPEAINNFCARVGVTVAQTTMEPHLLEACVRDVLNDTAPRAMAVLESLRVIITNFPAAKSLDIQVPNFPADETKGFHQVPFAPIVFIERTDFKEEPEPGFKRLAWGQPVGLRHTGYVIELQHVVKGPSGCVESLEVTCRRADAGEKPKAFIHWVSQPLMCEVRLYERLFQHKNPEDPTEVPGGFLSDLNLASLHVVDAALVDCSVALAKPFDKFQFERLGYFSVDPDSHQGKLVFNRTVTLKEDPGKV | binds |  |
